This is one part of the list. Repeats are few or missing, and single values can be far off.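 The apoptosis fraction was the count of cleaved-PARP antibody-stained nuclei relative to all DNA-stained nuclei, imaged in 1,536-well plates. Screening doses were set so most cells survived, and baseline and induced cleaved-PARP levels vary greatly across cell lines.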

For this assay, the system named is SkMel30. Put plainly: cleaved PARP positive nuclei fraction relative to DMSO control; melanoma cells; higher = more apoptosis. The following applies: library dose: low library concentration; 72 h.
In the case of `N#CC[C@H](C1CCCC1)n1cc(-c2ncnc3[nH]ccc23)cn1` [ruxolitinib] + C=CCNC1=C2C[C@@H](C)C[C@H](OC)[C@H](O)[C@@H](C)/C=C(\C)[C@H](OC(N)=O)[C@@H](OC)/C=C\C=C(/C)C(=O)NC(=CC1=O)C2=O [Tanespimycin] (first compound 1 µM, partner dose 0.002 µM), the “cleaved PARP positive nuclei fraction” value stood at 64.9%.
Turning to `Cc1cn(-c2cc(NC(=O)c3ccc(C)c(Nc4nccc(-c5cccnc5)n4)c3)cc(C(F)(F)F)c2)cn1` [nilotinib] + COCC[n+]1c2c(n(Cc3cnccn3)c1C)C(=O)c1ccccc1C2=O [YM155] (first compound 0.2 µM, partner dose 0.0004 µM), the “cleaved PARP positive nuclei fraction” value worked out at 314%.
As for `Cc1cn(-c2cc(NC(=O)c3ccc(C)c(Nc4nccc(-c5cccnc5)n4)c3)cc(C(F)(F)F)c2)cn1` [nilotinib] + CCN(CC)CCNC(=O)c1c(C)[nH]c(/C=C2\C(=O)Nc3ccc(F)cc32)c1C [sunitinib] (first compound 0.2 µM, partner dose 0.4 µM), the “cleaved PARP positive nuclei fraction” value amounted to 488%.
The figure for `COc1cc([C@@H]2c3cc4c(cc3[C@@H](O[C@@H]3O[C@@H]5CO[C@@H](C)O[C@H]5[C@H](O)[C@H]3O)[C@H]3COC(=O)[C@H]23)OCO4)cc(OC)c1O` [etoposide] + CNC(=O)c1cc(Oc2ccc(NC(=O)Nc3ccc(Cl)c(C(F)(F)F)c3)cc2)ccn1 [sorafenib] (first compound 0.02 µM, partner dose 0.4 µM) is 112%.
`Cc1cc(Nc2cc(N3CCN(C)CC3)nc(Sc3ccc(NC(=O)C4CC4)cc3)n2)n[nH]1` [Tozasertib] + CN1CCN(c2ccc3nc(-c4c(N)c5c(F)cccc5[nH]c4=O)[nH]c3c2)CC1 [Dovitinib] (first compound 0.006 µM, partner dose 0.1 µM): the “cleaved PARP positive nuclei fraction” value stood at 129%.
The figure for `COc1cc([C@@H]2c3cc4c(cc3[C@@H](O[C@@H]3O[C@@H]5CO[C@@H](C)O[C@H]5[C@H](O)[C@H]3O)[C@H]3COC(=O)[C@H]23)OCO4)cc(OC)c1O` [etoposide] + Nc1cccc2c1CN(C1CCC(=O)NC1=O)C2=O [lenalidomide] (first compound 0.02 µM, partner dose 1 µM) is 135%; for `CC[C@]1(O)C[C@H]2CN(CCc3c([nH]c4ccccc34)[C@@](C(=O)OC)(c3cc4c(cc3OC)N(C=O)[C@H]3[C@@](O)(C(=O)OC)[C@H](OC(C)=O)[C@]5(CC)C=CCN6CC[C@]43[C@@H]65)C2)C1` [vincristine] + Cc1cn(-c2cc(NC(=O)c3ccc(C)c(Nc4nccc(-c5cccnc5)n4)c3)cc(C(F)(F)F)c2)cn1 [nilotinib] (first compound 0.0001 µM, partner dose 0.2 µM) it is 249%; for `N#CC[C@H](C1CCCC1)n1cc(-c2ncnc3[nH]ccc23)cn1` [ruxolitinib] + Nc1cccc2c1CN(C1CCC(=O)NC1=O)C2=O [lenalidomide] (first compound 1 µM, partner dose 1 µM) it is 78.3%.
The figure for `N#CC[C@H](C1CCCC1)n1cc(-c2ncnc3[nH]ccc23)cn1` [ruxolitinib] + COCC[n+]1c2c(n(Cc3cnccn3)c1C)C(=O)c1ccccc1C2=O [YM155] (first compound 1 µM, partner dose 0.0004 µM) is 59.5%.
With `CCCCCCCCCCCCCCCCCCOP(=O)([O-])OC1CC[N+](C)(C)CC1` [Perifosine] + O=C(O)[C@@H]1[O][Sb](=[O])([O][Sb]2(=[O])[O][C@H]([C@H](O)CO)[C@H](O)[C@H](C(=O)O)[O]2)[O][C@H]([C@H](O)CO)[C@@H]1O [stibogluconate] (first compound 0.4 µM, partner dose 2 µM), the “cleaved PARP positive nuclei fraction” value came out at 123%.
As for `O=c1[nH]nc(Sc2ncc([N+](=O)[O-])s2)n1-c1ccc2c(c1)OCCO2` + Nc1ncn([C@H]2C[C@H](O)[C@@H](CO)O2)c(=O)n1 [decitabine] (first compound 0.2 µM, partner dose 0.1 µM), the figure is 26.9%; as for `O=C(Nc1cc(C(F)(F)F)cc(C(F)(F)F)c1)c1cc(Cl)ccc1O` + CC(C)C[C@H](NC(=O)[C@H](Cc1ccccc1)NC(=O)c1cnccn1)B(O)O [Bortezomib] (first compound 0.016 µM, partner dose 0.001 µM), 121%; as for `N#CC[C@H](C1CCCC1)n1cc(-c2ncnc3[nH]ccc23)cn1` [ruxolitinib] + C[C@]1(O)C[C@@H](c2nc(-c3ccc4ccc(-c5ccccc5)nc4c3)c3c(N)nccn32)C1 [OSI906] (first compound 1 µM, partner dose 0.4 µM), 46.6%.
The figure for `Cc1cc(Nc2cc(N3CCN(C)CC3)nc(Sc3ccc(NC(=O)C4CC4)cc3)n2)n[nH]1` [Tozasertib] + CNC(=O)c1cc(Oc2ccc(NC(=O)Nc3ccc(Cl)c(C(F)(F)F)c3)cc2)ccn1 [sorafenib] (first compound 0.006 µM, partner dose 0.4 µM) is 55.1%; for `Cc1ccc(Nc2nccc(N(C)c3ccc4c(C)n(C)nc4c3)n2)cc1S(N)(=O)=O` [Pazopanib] + CN1CCN(c2ccc3nc(-c4c(N)c5c(F)cccc5[nH]c4=O)[nH]c3c2)CC1 [Dovitinib] (first compound 0.4 µM, partner dose 0.1 µM) it is 52.4%.
As for `Cc1cn(-c2cc(NC(=O)c3ccc(C)c(Nc4nccc(-c5cccnc5)n4)c3)cc(C(F)(F)F)c2)cn1` [nilotinib] + Cn1c(=O)n(-c2ccc(C(C)(C)C#N)cc2)c2c3cc(-c4cnc5ccccc5c4)ccc3ncc21 [NVP-BEZ235] (first compound 0.2 µM, partner dose 0.004 µM), the “cleaved PARP positive nuclei fraction” value came out at 88.4%.
The figure for `O=c1[nH]nc(Sc2ncc([N+](=O)[O-])s2)n1-c1ccc2c(c1)OCCO2` + C=CCNC1=C2C[C@@H](C)C[C@H](OC)[C@H](O)[C@@H](C)/C=C(\C)[C@H](OC(N)=O)[C@@H](OC)/C=C\C=C(/C)C(=O)NC(=CC1=O)C2=O [Tanespimycin] (first compound 0.2 µM, partner dose 0.002 µM) is 93.8%.
For `CCCCCCCCCCCCCCCCCCOP(=O)([O-])OC1CC[N+](C)(C)CC1` [Perifosine] + C#Cc1cccc(Nc2ncnc3cc(OCCOC)c(OCCOC)cc23)c1 [erlotinib] (first compound 0.4 µM, partner dose 0.8 µM), the “cleaved PARP positive nuclei fraction” value came to 82.2%.
With `COc1cc([C@@H]2c3cc4c(cc3[C@@H](O[C@@H]3O[C@@H]5CO[C@@H](C)O[C@H]5[C@H](O)[C@H]3O)[C@H]3COC(=O)[C@H]23)OCO4)cc(OC)c1O` [etoposide] + C[C@]1(O)C[C@@H](c2nc(-c3ccc4ccc(-c5ccccc5)nc4c3)c3c(N)nccn32)C1 [OSI906] (first compound 0.02 µM, partner dose 0.4 µM), the “cleaved PARP positive nuclei fraction” value is 54.3%.
As for `CCCCCCCCCCCCCCCCCCOP(=O)([O-])OC1CC[N+](C)(C)CC1` [Perifosine] + C[C@@H](N)c1ccc(C(=O)Nc2ccnc3[nH]ccc23)cc1 [RKI983] (first compound 0.4 µM, partner dose 0.4 µM), the figure is 95.9%.
Take `CCCCCCCCCCCCCCCCCCOP(=O)([O-])OC1CC[N+](C)(C)CC1` [Perifosine] + CCCS(=O)(=O)Nc1ccc(F)c(C(=O)c2c[nH]c3ncc(Cl)cc23)c1F [PLX4720] (first compound 0.4 µM, partner dose 0.08 µM): the “cleaved PARP positive nuclei fraction” value came to 152%.
As for `O=C(/C=C/c1cccnc1)NCCCCC1CCN(C(=O)c2ccccc2)CC1` + Cc1cc(Nc2cc(N3CCN(C)CC3)nc(/C=C/c3ccccc3)n2)n[nH]1 [ENMD2076] (first compound 0.01 µM, partner dose 0.04 µM), the figure is 62.6%; as for `O=C(/C=C/c1cccnc1)NCCCCC1CCN(C(=O)c2ccccc2)CC1` + Clc1ccc(Nc2nnc(Cc3ccncc3)c3ccccc23)cc1 [vatalanib] (first compound 0.01 µM, partner dose 2 µM), 115%; as for `Cc1cc(Nc2cc(N3CCN(C)CC3)nc(Sc3ccc(NC(=O)C4CC4)cc3)n2)n[nH]1` [Tozasertib] + CC1(C)CCC(c2ccc(Cl)cc2)=C(CN2CCN(c3ccc(C(=O)NS(=O)(=O)c4ccc(N[C@H](CCN5CCOCC5)CSc5ccccc5)c(S(=O)(=O)C(F)(F)F)c4)cc3)CC2)C1 [ABT263] (first compound 0.006 µM, partner dose 0.4 µM), 129%.
Regarding `CCCCCCCCCCCCCCCCCCOP(=O)([O-])OC1CC[N+](C)(C)CC1` [Perifosine] + NC(=O)c1ccc(N(C(N)=O)c2c(F)cccc2F)nc1-c1ccc(F)cc1F [VX702] (first compound 0.4 µM, partner dose 0.4 µM), the “cleaved PARP positive nuclei fraction” value was 107%.
As for `CCCCCCCCCCCCCCCCCCOP(=O)([O-])OC1CC[N+](C)(C)CC1` [Perifosine] + CC(=O)c1c(C)c2cnc(Nc3ccc(N4CCNCC4)cn3)nc2n(C2CCCC2)c1=O [palbociclib] (first compound 0.4 µM, partner dose 0.04 µM), the figure is 154%; as for `Cc1ccc(Nc2nccc(N(C)c3ccc4c(C)n(C)nc4c3)n2)cc1S(N)(=O)=O` [Pazopanib] + O=C(O)c1ccc2c(c1)nc(Nc1cccc(Cl)c1)c1ccncc12 [CX4945] (first compound 0.4 µM, partner dose 0.4 µM), 71.8%.
The figure for `Cc1cn(-c2cc(NC(=O)c3ccc(C)c(Nc4nccc(-c5cccnc5)n4)c3)cc(C(F)(F)F)c2)cn1` [nilotinib] + C=C(c1ccc(C(=O)O)cc1)c1cc2c(cc1C)C(C)(C)CCC2(C)C [Bexarotene] (first compound 0.2 µM, partner dose 2 µM) is 54.3%.

The values above are taken from the supplement of paper PMC4604168 (melanoma cell lines).
